Taken from: PubChem BioAssay AID1259308 (NCATS, 2017)
Test: 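Candidate targets for better recombinant protein yield in mammalian cells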 (primary screen). Cells: human HEK293 embryonic kidney cells stably expressing firefly luciferase (HEK-CMV-Luc2-Hygro). Reagent: single siRNA against human genes, 0.8 pmol siRNA per well. Duration: 72 h. Measurement: 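Reporter luminescence and viable-cell signal on separate replicate plates, given as percent of non-targeting control and median/MAD z-scores, plus per-cell luciferase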. Reading the numbers: total luciferase, z-score and total luciferase, % of control: higher = more reporter protein produced; luciferase per cell, z-score: higher = more reporter output per viable cell; viable cells, % of control: higher = more viable cells. Active means: 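Active when the median/MAD z-score for overall luciferase is greater than 3; a gene was taken forward for validation with new siRNAs if at least two of its three siRNAs passed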. Calls: active = raised luciferase; inactive = no rise.
The deposit covers about 59,000 reagents; this is a random part of them. About 1,510 of all reagents (2.6%) were called active. 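Calls use total luciferase alone and ignore viability, so some active siRNAs may act by altering cell number.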 Entries without a mark were called inactive. Reagents against one gene are numbered here.

gene knocked down	siRNA no.	total luciferase, z-score	total luciferase, % of control	luciferase per cell, z-score	viable cells, % of control
PHYKPL (GeneID 85007)	1	-0.172	78.5	-0.519	101
PHYKPL (GeneID 85007)	2	0.698	95.8	0.418	95.9
PHYKPL (GeneID 85007)	3	0.32	88.2	1.08	74.1
GPR119 (GeneID 139760)	1	0.313	88.1	0.543	85.3
GPR119 (GeneID 139760)	2	-0.762	66.7	-1.23	103
GPR119 (GeneID 139760)	3	0.643	94.7	0.322	97.2
GPRACR (GeneID 401554)	1	0.906	99.9	1.88	68
GPRACR (GeneID 401554)	2	-1.13	59.5	-0.737	80.7
GPRACR (GeneID 401554)	3	0.0622	83.1	-0.62	109
DYRK2 (GeneID 8445)	1	1.38	109	1.23	88.3
DYRK2 (GeneID 8445)	2	0.492	91.7	0.468	90.6
DYRK2 (GeneID 8445)	3	-1.43	53.5	-0.621	70.4
POLG2 (GeneID 11232)	1	0.0997	83.9	0.135	90.4
POLG2 (GeneID 11232)	2	0.624	94.3	0.159	101
POLG2 (GeneID 11232)	3	1.46	111	0.833	99.6
PRDM16 (GeneID 63976)	1	3.45 (active)	150	2.03	98.5
PRDM16 (GeneID 63976)	2	-0.396	74	-0.703	99.5
PRDM16 (GeneID 63976)	3	-1.04	61.2	-1.08	90.8
PRDM16 (GeneID 63976)	4	-0.904	63.9	0.023	71
PRDM16 (GeneID 63976)	5	1.13	104	1.29	83
PRDM16 (GeneID 63976)	6	-1.66	48.8	-1.56	82.2
FYB2 (GeneID 199920)	1	-0.181	78.3	-0.351	96
FYB2 (GeneID 199920)	2	-0.214	77.6	-0.207	91.6
FYB2 (GeneID 199920)	3	2.98	141	1.58	104
NSD1 (GeneID 64324)	1	-0.922	63.6	0.625	60.3
NSD1 (GeneID 64324)	2	1.41	110	1.18	90.1
NSD1 (GeneID 64324)	3	-0.652	68.9	0.178	73.5
ECT2L (GeneID 345930)	1	0.209	86.1	0.228	90.6
ECT2L (GeneID 345930)	2	-0.0219	81.5	-0.548	105
ECT2L (GeneID 345930)	3	1.9	120	1.33	94.3
GOLGA7B (GeneID 401647)	1	-0.244	77	-0.586	100
GOLGA7B (GeneID 401647)	2	-0.732	67.3	-0.103	77.3
GOLGA7B (GeneID 401647)	3	0.436	90.6	0.131	97.8
TMEM68 (GeneID 137695)	1	0.449	90.8	-0.146	105
TMEM68 (GeneID 137695)	2	-0.737	67.2	-0.543	86.7
TMEM68 (GeneID 137695)	3	0.832	98.4	-0.0687	112

No new results follow: entries from further up.
gene knocked down	siRNA no.	total luciferase, z-score	total luciferase, % of control	luciferase per cell, z-score	viable cells, % of control
GPR119 (GeneID 139760)	3	0.643	94.7	0.322	97.2
GPRACR (GeneID 401554)	1	0.906	99.9	1.88	68
GPRACR (GeneID 401554)	2	-1.13	59.5	-0.737	80.7
GPRACR (GeneID 401554)	3	0.0622	83.1	-0.62	109
DYRK2 (GeneID 8445)	1	1.38	109	1.23	88.3
DYRK2 (GeneID 8445)	2	0.492	91.7	0.468	90.6
DYRK2 (GeneID 8445)	3	-1.43	53.5	-0.621	70.4
POLG2 (GeneID 11232)	1	0.0997	83.9	0.135	90.4
POLG2 (GeneID 11232)	2	0.624	94.3	0.159	101
POLG2 (GeneID 11232)	3	1.46	111	0.833	99.6
PRDM16 (GeneID 63976)	1	3.45 (active)	150	2.03	98.5

The listing continues.
gene knocked down	siRNA no.	total luciferase, z-score	total luciferase, % of control	luciferase per cell, z-score	viable cells, % of control
PIP4P1 (GeneID 90809)	1	-1.45	53.1	-1.32	83.9
PIP4P1 (GeneID 90809)	2	-0.593	70.1	-0.211	82.8
PIP4P1 (GeneID 90809)	3	1.57	113	1.79	79
CHM (GeneID 1121)	1	-0.63	69.4	-1.22	107
CHM (GeneID 1121)	2	-0.461	72.7	-0.879	102
CHM (GeneID 1121)	3	-1.68	48.4	-2.06	93
SBSPON (GeneID 157869)	1	-0.598	70	-0.342	85.6
SBSPON (GeneID 157869)	2	1.7	116	1.57	85.6
SBSPON (GeneID 157869)	3	1.16	105	0.528	102
NECAB1 (GeneID 64168)	1	-0.421	73.5	0.248	76.9
NECAB1 (GeneID 64168)	2	-0.583	70.3	-0.31	85.2
NECAB1 (GeneID 64168)	3	-0.778	66.4	-0.974	95.9
HNRNPK (GeneID 3190)	1	-0.318	75.6	0.412	75.7
HNRNPK (GeneID 3190)	2	0.117	84.2	0.577	80.8
HNRNPK (GeneID 3190)	3	-0.137	79.2	-0.109	91
SOD2 (GeneID 6648)	1	0.0665	83.2	0.0175	92.6
SOD2 (GeneID 6648)	2	-0.317	75.6	-0.712	102
SOD2 (GeneID 6648)	3	-0.395	74	0.452	73.5
ZMYM6 (GeneID 9204)	1	-0.771	66.6	0.143	71.6
ZMYM6 (GeneID 9204)	2	-0.597	70	-0.972	101
ZMYM6 (GeneID 9204)	3	0.678	95.4	0.379	96.4
CHDH (GeneID 55349)	1	2.2	126	1.97	83.6
CHDH (GeneID 55349)	2	-0.574	70.5	-0.196	82.9
CHDH (GeneID 55349)	3	-0.099	79.9	-0.456	101
SLC19A2 (GeneID 10560)	1	-1.3	55.9	-0.72	75.5
SLC19A2 (GeneID 10560)	2	0.289	87.6	0.0256	97.3
SLC19A2 (GeneID 10560)	3	1.25	107	0.759	97.6
CREBZF (GeneID 58487)	1	-1.84	45.2	-1.53	75.7
CREBZF (GeneID 58487)	2	-0.151	78.9	-0.717	106
CREBZF (GeneID 58487)	3	2.11	124	2.22	77.1
ZNF888 (GeneID 388559)	1	0.476	91.4	0.205	96.7
ZNF888 (GeneID 388559)	2	-0.473	72.5	-0.326	88.2
ZNF888 (GeneID 388559)	3	0.171	85.3	0.772	77.8
HDGFL3 (GeneID 50810)	1	-0.0208	81.5	-0.223	96.5
HDGFL3 (GeneID 50810)	2	-0.81	65.8	-0.231	78.1
HDGFL3 (GeneID 50810)	3	1.78	117	0.713	109
ATOX1 (GeneID 475)	1	-0.00724	81.7	0.197	86.7
ATOX1 (GeneID 475)	2	-0.618	69.6	0.0485	76.8
ATOX1 (GeneID 475)	3	0.125	84.4	-0.0793	96.3
